Paper doi:10.1101/2020.03.23.003509

Key:
[1] = target: T1, GST-Kaiso (full-length Kaiso, ZBTB33, from pEBG-GST-Kaiso) (human) (UniProt Q86T24); assay: pull-down
T1 sequence: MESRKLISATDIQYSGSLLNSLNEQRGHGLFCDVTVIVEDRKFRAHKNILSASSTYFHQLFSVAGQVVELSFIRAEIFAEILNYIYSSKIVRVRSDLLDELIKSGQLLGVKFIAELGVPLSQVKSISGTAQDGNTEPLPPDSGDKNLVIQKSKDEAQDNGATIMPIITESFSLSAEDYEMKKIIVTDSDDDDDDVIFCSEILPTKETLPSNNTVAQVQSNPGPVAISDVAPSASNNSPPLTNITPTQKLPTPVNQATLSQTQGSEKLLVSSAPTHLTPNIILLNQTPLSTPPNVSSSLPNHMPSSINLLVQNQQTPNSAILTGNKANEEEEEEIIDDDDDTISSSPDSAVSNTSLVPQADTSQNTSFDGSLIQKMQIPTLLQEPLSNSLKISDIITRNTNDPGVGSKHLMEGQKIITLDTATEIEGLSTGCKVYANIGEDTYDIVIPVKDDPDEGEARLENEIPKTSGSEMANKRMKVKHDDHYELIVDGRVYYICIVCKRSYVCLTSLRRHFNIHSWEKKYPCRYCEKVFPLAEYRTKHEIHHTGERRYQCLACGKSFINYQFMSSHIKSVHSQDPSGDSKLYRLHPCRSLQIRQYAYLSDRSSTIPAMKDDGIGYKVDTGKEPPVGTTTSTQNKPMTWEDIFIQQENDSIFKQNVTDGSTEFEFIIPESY

[2] = target: T2, Kaiso wild type (Kaiso-wt), transfected, from pEGFP-C1-Kaiso (human) (UniProt Q86T24); assay: co-IP
T2 sequence: T1 sequence

[3] = target: T3, endogenous Kaiso (ZBTB33) (human (endogenous in MGC803)) (UniProt Q86T24); assay: co-IP
T3 sequence: T1 sequence

binding [1]	binding [2]	binding [3]	Substance
binds	–	–	Flag-14-3-3ζ (human)
–	binds	binds	endogenous pan-14-3-3 (human (endogenous in MGC803))

These are yes or no findings as the source states them, for the method shown. Binding seen in cells or lysates may run through a third protein. A result given as binding can be weak or reduced; the word gives no strength. For part of these data: Tags and fused reporters may be left off the sequences shown.
